# Measured values taken from PubChem BioAssay AID1347076 (National Center for Advancing Translational Sciences (NCATS), 2019).
# Hit rate of the full screen: of about 400,000 compounds, about 13,000 (3.2%) were called active. The shares of active, inactive and inconclusive entries below differ from those in the screen. Calls come from the whole dose curve; as a rule, active = well fitted cell-killing curve with a large enough effect; inconclusive = small, poorly fitted or top-dose-only effect, or effect the other way; inactive = flat fitted curve, though single readings scatter. Where the call is inconclusive, the potency comes from a doubtful curve fit.
# Assay: qHTS assay for MDR1-selective chemotherapeutics: Primary screen using the drug-selected MDR subline cells KB-V1; note: nearly all actives have a fitted effect of over 60% in size
# Conditions: KB-V1 MDR cells viability, CellTiter-Glo, 72 h; activity change, negative = cytotoxicity: at 46.1 µM (top of the series)
# Outline: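 Cytotoxicity via CellTiter-Glo luminescence after 72 h compound exposure at 37 degrees C. Cells: drug-selected KB-V1 line, DMEM phenol-red free plus 10% FBS. Compounds tested at multiple concentrations; normalized data fitted to concentration-effect curves.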
# % is set by controls: 0 for no effect and ±100 for the full control effect; potency is the fitted concentration of half-maximal effect.
Compound,Potency,"activity change, negative = cytotoxicity"
CC1=C(C(=O)OC(C)C)C(c2cncc(-c3ccc(F)cc3)c2)C(C#N)=C(N)O1 (stereo not given),"inconclusive: 23.1 µM [cytotoxic, single point]",
CCN(CC)CCN(C(=O)c1ccc2ccccc2c1)c1nc2ccc(OC)cc2s1,"inconclusive: 0.461 µM [rising, full curve]",
CCC(C(=O)N1CCN(c2ccccn2)CC1)n1nc(C)n2c(cc3occc32)c1=O (stereo not given),"inconclusive: 6.51 µM [cytotoxic, partial curve, poor fit]",
C/C(=N/NC(=O)c1ccco1)c1ccc(Br)s1,,inactive: 0.0098%
CC1(C)CC(=O)C=C(c2cccc(Br)c2)C1,,inactive: 2.85%
O=C(NCC1CCN(S(=O)(=O)c2ccccc2)CC1)Nc1ccc(F)cc1F,,inconclusive: -2.58%
COc1ccc(C(=O)/C=C/c2ccccc2F)c(OC(=O)c2ccc([N+](=O)[O-])cc2)c1,"inconclusive: 25.9 µM [cytotoxic, single point]",
O=C(O)/C=C/c1cn(-c2ccccc2)nc1-c1cccc([N+](=O)[O-])c1,,inactive: 17.1%
CCCCCn1c(NC(=O)c2ccco2)c(S(=O)(=O)c2ccc(C)cc2)c2nc3ccccc3nc21,active: 18.4 µM,
C[C@@H]1C[C@H]2[C@@H]3CCC4=CC(=O)C=C[C@]4(C)[C@@]3(Cl)[C@@H](O)C[C@]2(C)[C@@]1(OC(=O)c1ccco1)C(=O)CCl,"inconclusive: 7.31 µM [cytotoxic, partial curve, poor fit]",
CCN1CCN(c2ncc3c(n2)CC(c2cc(OC)c(OC)c(OC)c2)CC3=O)CC1 (stereo not given),,inactive: 0%
COC(=O)[C@@]12C[C@@H](CC(=O)N3CCN(C(=O)C4CC4)CC3)C(=O)N(Cc3ccccc3)C1=CCC(C)(C)C2,"inconclusive: 3.26 µM [cytotoxic, partial curve]",
CC(C)(C)NC(=O)CSc1nccn1Cc1ccccc1,"inconclusive: 16.4 µM [cytotoxic, single point]",
O=S(=O)(NC1CCN(S(=O)(=O)c2c(F)cccc2F)CC1)c1ccc2c(c1)OCCO2,,inconclusive: -16.2%
CCC(C)NC(=O)C1CCN(c2nc(C)cc(C)n2)CC1 (stereo not given),"inconclusive: 10.3 µM [cytotoxic, partial curve]",
COc1ccc(OC)c(C2c3c(-c4ccc(Br)cc4)n[nH]c3C(=O)N2c2ccc(Cl)cc2)c1 (stereo not given),"inconclusive: 29.1 µM [cytotoxic, single point]",
CCOc1ccc(NC(=O)c2ccc3c(SCC(=O)O)c4c(nc3c2)CCC4)cc1,,inactive: 0%
COc1ccc(S(=O)(=O)c2snnc2C)cc1,"inconclusive: 9.2 µM [rising, partial curve, poor fit]",
CCOc1cc(N2CCOCC2)c(OCC)cc1NC(=O)CN1CCN(Cc2ccc3c(c2)OCO3)CC1,,inactive: -7.57%
Cc1ccc(C(=O)C(C(=O)/C=C/c2ccccc2)=C2SCCCS2)cc1,,inactive: -24%
CC1(C)Cc2[nH]c(=S)c(C#N)cc2CO1,,inactive: 18.8%
COc1cccc(C(C)(O)c2nc(-c3ccoc3)cs2)c1 (stereo not given),,inactive: -20.9%
O=C(Nc1nc(-c2cccs2)cs1)c1ccco1,"inconclusive: 16.4 µM [cytotoxic, single point]",
C=CCn1c(SCc2c(C)noc2C)nc2sc3c(c2c1=O)CCC(C)C3 (stereo not given),active: 4.61 µM,

# Entries of single compounds from above.
# `COc1ccc(S(=O)(=O)c2snnc2C)cc1` as listed: Potency: inconclusive: 9.2 µM [rising, partial curve, poor fit]
# `CCN1CCN(c2ncc3c(n2)CC(c2cc(OC)c(OC)c(OC)c2)CC3=O)CC1` (stereo not given) as listed: activity change, negative = cytotoxicity: inactive: 0%
# `CC1=C(C(=O)OC(C)C)C(c2cncc(-c3ccc(F)cc3)c2)C(C#N)=C(N)O1` (stereo not given) as listed: Potency: inconclusive: 23.1 µM [cytotoxic, single point]
# `CCN(CC)CCN(C(=O)c1ccc2ccccc2c1)c1nc2ccc(OC)cc2s1` as listed: Potency: inconclusive: 0.461 µM [rising, full curve]

# Remaining list, next part:

Compound,Potency,"activity change, negative = cytotoxicity"
Nc1ncnc2c(C3OC(CO)C(O)C3O)scc12 (stereo not given),"inconclusive: 0.0065 µM [cytotoxic, full curve, poor fit]",
O=C1CN(C(=O)CN2CCN(S(=O)(=O)c3ccccc3F)CC2)c2ccccc2N1,,inactive: -0.0771%
Nc1ncc(-c2ccc(-c3ccccc3)cc2F)cc1-c1ccccc1F,"inconclusive: 29.1 µM [cytotoxic, single point]",
COc1ccc(S(=O)(=O)N(C)c2nc3ccccc3n3c(CC(C)C)nnc23)cc1,"inconclusive: 23.1 µM [cytotoxic, partial curve]",
CN1CCc2c(sc3c2C(=O)NC(c2ccccn2)N3)C1 (stereo not given),,inactive: 8.13%
CCOC(=O)c1c(Nc2cccc(C(=O)OC)c2)nnc(-c2ccccc2)c1-c1ccccc1,active: 13 µM,
O=C(Cc1ccccc1)N1CCC(c2nc(-c3ccc(F)cc3)no2)CC1,"inconclusive: 17.8 µM [cytotoxic, single point]",
CCOC(=O)c1sc(SC)nc1N,"inconclusive: 0.0052 µM [rising, full curve, poor fit]",
Cc1ccc(N2C(=O)N(CC(=O)Nc3ccc(C)cc3[N+](=O)[O-])C(=O)C2C)cc1 (stereo not given),"inconclusive: 5.8 µM [cytotoxic, partial curve]",
CCOC(=O)C1=CCC(c2ccccc2Cl)N(S(=O)(=O)c2ccc(C)cc2)C1 (stereo not given),"inconclusive: 29.1 µM [cytotoxic, single point]",
CCn1cc(CCC(=O)NC(C)c2ccccc2)c2ccccc21 (stereo not given),,inactive: -9.03%
COc1ccc(-c2nc(CSCC(=O)NC3CCCC3)c(C)o2)cc1OC,"inconclusive: 7.31 µM [cytotoxic, partial curve]",
COc1ccc([N+](=O)[O-])cc1NC(=O)C(C)OC(=O)/C=C/c1ccco1 (stereo not given),"inconclusive: 23.1 µM [cytotoxic, partial curve]",
O=C(CCN1C(=O)c2ccccc2S1(=O)=O)Nc1cccc2ccccc12,,inactive: -11.3%
COc1cccc(C(=O)C2CCCN(Cc3c(C)n(C)n(-c4ccccc4)c3=O)C2)c1 (stereo not given),,inactive: -3.45%
Cc1ccc(-n2ncc(Br)c(Br)c2=O)cc1,,inactive: 10.7%
c1nc(SSc2ncnc3nc[nH]c23)c2[nH]cnc2n1,active: 2.31 µM,
CCOC(=O)C1(Cc2cccc(Cl)c2)CCCN(C(=O)CCNC(C)=O)C1 (stereo not given),,inactive: 0%
COCCNc1nc(NC(C)C)nc2ccsc12,,inactive: 5.03%
Cc1ccc(CN(CC(=O)NC2CCCC2)C(=O)c2csnn2)cc1,"inconclusive: 2.91 µM [cytotoxic, partial curve, poor fit]",
Cc1cc(Br)ccc1NC(=O)CN(C)C(=O)CN1C(=O)NC(C)(C2CC2)C1=O (stereo not given),"inconclusive: 20.6 µM [rising, single point]",
Clc1ccc(OCCOCCOc2cccc3cccnc23)c(Br)c1,,inactive: 0%
C/C(N)=C(/C#N)C(=O)CSc1nc2cc(Cl)ccc2c(=O)n1-c1ccc(C)cc1,,inactive: -16.8%
COc1cc(OC)cc(OC(=O)C2CCN(C(=O)c3ccc(Cl)cc3)CC2)c1,,inactive: 0%

Compound,Potency,"activity change, negative = cytotoxicity"
CCOC1=C2[C@H](c3ccccc3)N(S(=O)(=O)c3ccccc3)C[C@H]2n2c(=O)n(-c3ccccc3)c(=O)n2C1,,inactive: 14.2%
CCOC(=O)CN1NC2(CCCCC2)NC1=S,"inconclusive: 6.51 µM [rising, partial curve, poor fit]",
COc1cccc(C(=O)OCC(=O)Nc2sc3c(c2C(N)=O)CCC3)c1O,"inconclusive: 29.1 µM [rising, single point]",
CCOC(=O)c1cnc2ccc(OCC)cc2c1N1CCN(c2ccccc2F)CC1,"inconclusive: 5.17 µM [cytotoxic, partial curve, poor fit]",
CCOc1ccc(S(=O)(=O)Nc2c(C)n(C)n(-c3ccccc3)c2=O)cc1,"inconclusive: 29.1 µM [rising, single point]",
CCOc1ccc(NC2=C(OC)C(=O)c3ccccc3C2=O)cc1,"inconclusive: 16.4 µM [cytotoxic, single point]",
CCOc1ccc(NC(=O)c2ccc3snnc3c2)cc1,"inconclusive: 29.1 µM [cytotoxic, single point]",
CC(C)NC(=O)C1CCC(Cn2c(=O)c3sccc3n(CC(=O)Nc3ccccc3)c2=O)CC1 (stereo not given),,inactive: 1.29%
CCOCc1c(C(=O)Nc2ccc3nc(N4CCOCC4)sc3c2)oc2ccccc12,active: 20.6 µM,
COc1cccc(NC(=O)CN(C)C(=O)c2cc(S(=O)(=O)N3CCCCC3)ccc2Cl)c1,"inconclusive: 23.1 µM [cytotoxic, single point]",
C=CCC[C@@H](CCCCC)OC(=O)/C=C/[C@H](O)[C@@H](O)C[C@@H](O)CC=C,"inconclusive: 29.1 µM [cytotoxic, single point]",
CC(=O)Nc1cccc(Nc2nc(-c3ccccc3)nc3ccccc23)c1,"inconclusive: 29.1 µM [cytotoxic, single point]",
CC(C)n1c(SCc2ccccc2F)nc2c1c(=O)n(C)c(=O)n2C,"inconclusive: 23.1 µM [cytotoxic, single point]",
CC(C)(C)C(=O)NC1CCN(CC(=O)Nc2ccc3c(c2)OCO3)CC1,"inconclusive: 0.58 µM [rising, full curve, poor fit]",
CC(=O)c1cc(-c2ccccc2)n(CC(=O)NCCc2ccc(C)cc2)c1C,,inactive: -4.57%
O=C(NCCCN1CCN(CCCNC(=O)c2cc([N+](=O)[O-])ccc2Cl)CC1)c1cc([N+](=O)[O-])ccc1Cl,"inconclusive: 25.9 µM [rising, single point]",
CC(C)Oc1ccc(CNC(=O)C2CCN(C(=O)N3CC(C)Oc4ccccc43)CC2)cc1 (stereo not given),,inactive: 0%
O=C(CSc1nnnn1-c1ccccc1)Nc1nsc(-c2ccccc2)n1,"inconclusive: 18.4 µM [cytotoxic, single point]",
Cc1ccc(C)c(COC(=O)c2cc(S(=O)(=O)N3CCCCC3)ccc2N2CCOCC2)c1,"inconclusive: 8.2 µM [cytotoxic, partial curve]",
COCCn1c(=S)[nH]c2ccccc21,,inactive: -3.02%
COc1ccccc1CNC(=O)CCNC(=O)C1CCN(S(=O)(=O)c2ccccc2)CC1,"inconclusive: 29.1 µM [rising, single point]",
Cc1ccc(CNC(=O)c2ccc(N3CCC4(CC3)CC(c3cccc(Br)c3)=NO4)c(NC(=O)c3ccc(Br)cc3)c2)cc1,"inconclusive: 23.1 µM [rising, partial curve, poor fit]",
